± gives the standard deviation of the averaged measurements. The list shows a part of the results. Repeats are few or missing, and single values can be far off.
tested on: RAW 264.7 macrophages infected with S. aureus JE2-lux; assay: host macrophage viability (CellTiter-Fluor) relative to DMSO vehicle; higher = more viable host cells; settings: 10 µM; treatment time 4 h; gentamicin 50 µg/ml

Row | SMILES | host macrophage viability
1 | O=C1Nc2ccc(Br)cc2/C1=C1/SC(=S)N(C(Cc2ccccc2)C(=O)O)C1=O (stereo unspecified) | 100%
2 | O=C(CN1C(=O)c2ccccc2S1(=O)=O)Nc1ccon1 | 137%
3 | CCc1cccc(C)c1NC(=O)CSc1nnc(-c2ccncc2)o1 | 129%
4 | Cc1cc(NC(=O)CSc2nnc(NC(=O)C3CC(=O)N(c4ccc(C)c(C)c4)C3)s2)no1 (stereo unspecified) | 116%
5 | Cc1nn2cc(C#N)c(-c3ccccc3)nc2c1-c1ccccc1 | 102%
6 | CCCCCn1c(SCC(=O)CC(=O)OCC)nc2cc(C(=O)NCc3ccco3)ccc2c1=O | 118%
7 | CCOc1ccccc1NCc1nc2nc(C)cc(C)n2n1 | 117%
8 | NC(=O)c1cc2cc(Cl)ccc2o/c1=N\c1cccc(C(F)(F)F)c1 | 104 ± 3.8%
9 | COCCn1c(=O)[nH]c2ccccc2/c1=N\C(=O)Nc1ccccc1C#N | 114%
10 | COc1cccc(-c2cc(C(F)(F)F)n3ncc(C(=O)O)c3n2)c1 | 110%
11 | O=c1oc2cc([N+](=O)[O-])ccc2c2ccc([N+](=O)[O-])cc12 | 127%
12 | COc1ccc(S(=O)(=O)N2CCOCC2)cc1C(=O)NCc1ccc2c(c1)OCO2 | 106%
13 | Cc1ccc(-n2nnc3c(SCC(=O)N4CCOCC4)ncnc32)cc1 | 117 ± 11%
14 | NC(=O)c1ccccc1NC(=O)CCn1c(=O)oc2ccccc21 | 121 ± 14%
15 | CCOC(=O)c1csc(-n2nc3c(c2C(F)(F)F)CCCCC3)n1 | 84.7%
16 | O=C(O)c1ccc2c(c1)C(=O)N(C(CC1=C[NH2+]C=N1)C(=O)[O-])C2=O (stereo unspecified) | 121%
17 | CC(c1ccccc1)n1c(CN2CCCCC2)nc2ccccc21 (stereo unspecified) | 122%
18 | Cc1ccc(C)c(CC(=O)Nc2nc3ccc4nc(C)sc4c3s2)c1 | 117%
19 | O=C(Nc1ccccc1F)N1CCC(c2nc3cc(Cl)ccc3[nH]2)CC1 | 122%
20 | CCCCOC(=O)c1ccc(NC(=O)c2cc(-c3ccc4c(c3)OCCO4)on2)cc1 | 118%
21 | Cn1c(=O)[nH]c2cc(-c3noc(CNC(=O)c4ccccc4)n3)ccc21 | 107%
22 | CC(=O)Nc1cccc(NC(=O)C(=O)Nc2ccc3c(c2)N(C(=O)C2CC2)CCC3)c1 | 112%
23 | COc1ccc(C(=O)N2c3cc(CNC(=O)c4cc(CC(C)C)on4)ccc3CC2C)cc1 (stereo unspecified) | 96.1%
24 | Cc1csc(SCc2cc(=O)c(OC(=O)Cc3ccc(F)cc3)co2)n1 | 109%
25 | Cc1nc2ccccc2c(=O)n1-c1ccc(NS(=O)(=O)c2ccc3c(c2)OCCO3)cc1 | 114%
26 | CCOc1ccc(N2CCn3c2nc2c3c(=O)n(CC(=O)O)c(=O)n2C)cc1 | 140%

Three compounds already listed, ordered by formula weight, falling:
Row | SMILES | host macrophage viability
23 | COc1ccc(C(=O)N2c3cc(CNC(=O)c4cc(CC(C)C)on4)ccc3CC2C)cc1 (stereo unspecified) | 96.1%
15 | CCOC(=O)c1csc(-n2nc3c(c2C(F)(F)F)CCCCC3)n1 | 84.7%
2 | O=C(CN1C(=O)c2ccccc2S1(=O)=O)Nc1ccon1 | 137%

(further entries)

Row | SMILES | host macrophage viability
27 | O=C(CSC1=NS(=O)(=O)c2cc(F)ccc2N1)NCc1ccc2c(c1)OCO2 | 115%
28 | COc1ccc(Cc2nnc3sc(SCC(=O)Nc4ccccc4)nn3c2=O)cc1OC | 122%
29 | CCOc1ccc(CCNC(=O)CN2c3ccccc3S(=O)(=O)c3ccccc32)cc1OCC | 109%
30 | CCOC(=O)C1CCCN(c2ncnc3scc(-c4ccc(Cl)cc4)c23)C1 (stereo unspecified) | 120%
31 | Cn1c(=O)c2c(nc3n2CC(C(C)(C)C)=NN3CCN2CCOCC2)n(C)c1=O | 120%
32 | COc1cccc(-c2noc(NCCC(C)C)n2)c1 | 133%
33 | CCN(CC)C(=O)c1sc2nc3cc(C)c(C)cc3cc2c1N | 112%
34 | CCOc1cc(-c2nc3ccc(C)cn3c2NCC2CCCO2)ccc1O (stereo unspecified) | 138%
35 | CCc1cc(Sc2nnc(NC(=O)Nc3cccc(Cl)c3)s2)n2ncnc2n1 | 116%
36 | Cc1nc2ccc(NC(=S)NC(=O)CN3C(=O)CCC3=O)cc2s1 | 115 ± 13%
37 | CCOC(=O)c1sc2nc(C)nc(Oc3cccc(OC)c3)c2c1C | 112%
38 | COc1ccc2cc(C(=O)N3CCN(c4cc(C)nc(C)n4)CC3)n(C)c2c1 | 105%
39 | CC1C(=O)N2CCCc3cc(NC(=O)C(=O)NCCC4=CCCCC4)cc1c32 (stereo unspecified) | 103%
40 | O=C(Nc1ccc(F)cc1F)c1nnc(C2CCN(C(=O)C3CCCCC3)CC2)s1 | 105%
41 | O=C(Nc1cc(C(F)(F)F)cc(C(F)(F)F)c1)c1cnc2sccn2c1=O | 112 ± 6.3%
42 | CCOC(=O)c1cccc(NC(=O)CSc2nnc3ccc(C(=O)NCc4ccccc4)cn23)c1 | 95.4%
43 | CC(=O)c1c(C)nn(CC(O)COc2ccc(C(=O)c3ccc(Cl)cc3)cc2)c1C (stereo unspecified) | 125%
44 | Clc1cccc2sc(N3CCN(c4ccccc4)CC3)nc12 | 118 ± 5%
45 | CCOc1ccc(Oc2nc(C)nc3sc4c(c23)CCCC4)cc1 | 123%
46 | CCS(=O)(=O)c1ccccc1C(=O)Nc1nc2c(s1)C(=O)CC(C)(C)C2 | 106%
47 | O=C(C1CCCN(c2nccnc2Oc2ccccc2)C1)N1CCN(c2ccccc2)CC1 (stereo unspecified) | 118%
48 | O=c1[nH]cc(S(=O)(=O)N2CCc3ccccc3C2)c(=O)[nH]1 | 118%
49 | Nc1c(C(=O)Nc2ccc(Br)cc2)sc2[nH]c(=O)c(C(=O)O)cc12 | 120%
50 | Cc1ccc2c(c1)cc(C)c1nnc(SCC(=O)Nc3cc(C)on3)n12 | 118%
51 | Cc1noc(C)c1C(=O)Nc1ccccc1NC(=O)c1ccccn1 | 114%

— the supplement of paper PMC12578635
